Reference: article PMC9209732
The exact form of at least one protein or probe is not confirmed. No signal at the amounts used counts as a negative. At least one verdict rests on a figure or table, not on a statement of the authors. For some assays here: Protein sequences can lack the tags named with them.

The chains behind the UniProt entries cited, without tags or fusion partners. Where a name states a change or a piece, a line headed by the entry shows the natural chain unless it says otherwise.
UniProt Q02548: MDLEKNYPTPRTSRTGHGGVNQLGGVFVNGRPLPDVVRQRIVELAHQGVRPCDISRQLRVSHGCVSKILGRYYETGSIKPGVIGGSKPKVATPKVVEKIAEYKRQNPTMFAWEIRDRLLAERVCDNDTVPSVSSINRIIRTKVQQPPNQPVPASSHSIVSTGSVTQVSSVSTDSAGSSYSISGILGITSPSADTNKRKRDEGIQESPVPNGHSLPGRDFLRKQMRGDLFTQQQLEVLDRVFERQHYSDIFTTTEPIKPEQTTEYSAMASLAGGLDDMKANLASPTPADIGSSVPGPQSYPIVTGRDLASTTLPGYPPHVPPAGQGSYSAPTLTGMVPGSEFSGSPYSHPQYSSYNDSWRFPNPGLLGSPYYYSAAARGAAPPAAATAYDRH

Assays:
Experiment in all cases: EMSA
Details in all cases: EMSA: 5-10 ug protein, 50 nM probe, 5% non-denaturing PAGE, streptavidin-HRP/ECL; pH and temperature not stated; recombinant protein; protein details: His (GST also stated in Results); label: 3' biotin
CTCF = target: T1, CTCF (UniProt P49711)
T1 sequence (looked up, limits assumed): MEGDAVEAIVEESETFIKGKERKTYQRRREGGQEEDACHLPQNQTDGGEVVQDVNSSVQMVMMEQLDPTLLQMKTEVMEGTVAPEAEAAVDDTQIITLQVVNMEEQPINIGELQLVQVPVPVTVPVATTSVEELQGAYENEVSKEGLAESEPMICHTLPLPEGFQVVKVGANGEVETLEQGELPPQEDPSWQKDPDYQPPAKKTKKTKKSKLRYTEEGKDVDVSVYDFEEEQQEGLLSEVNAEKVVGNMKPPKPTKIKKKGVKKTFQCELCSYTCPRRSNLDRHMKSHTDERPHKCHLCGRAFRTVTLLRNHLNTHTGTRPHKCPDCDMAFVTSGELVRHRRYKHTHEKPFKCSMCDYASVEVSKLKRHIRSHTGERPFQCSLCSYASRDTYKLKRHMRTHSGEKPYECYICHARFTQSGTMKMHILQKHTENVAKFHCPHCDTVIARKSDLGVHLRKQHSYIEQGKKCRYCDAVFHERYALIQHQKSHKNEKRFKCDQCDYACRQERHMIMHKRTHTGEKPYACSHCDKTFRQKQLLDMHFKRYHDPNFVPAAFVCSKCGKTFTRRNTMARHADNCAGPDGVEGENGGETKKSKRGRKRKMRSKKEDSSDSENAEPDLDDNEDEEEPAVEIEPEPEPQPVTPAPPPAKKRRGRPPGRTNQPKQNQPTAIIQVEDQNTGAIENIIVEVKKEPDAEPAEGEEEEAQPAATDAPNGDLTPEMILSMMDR

PPAR-gamma1 = system: PPAR-gamma1
Pax-5 = Pax-5 (UniProt Q02548)
Sp1 = Sp1 (UniProt P08047)
WT1 = WT1 (UniProt P19544)

Measured: binding result

CGCTGGCACCGCCCCGCCCCCGCCTCCCGCGGCACCGCCCGCCCGCGCAGACCCCGAGCGCGGCCGCGGACGAA (double strand) [ING5 promoter probe (-48 to 25)]
no binding: all assays above
